According to PubChem BioAssay AID2685 (National Center for Advancing Translational Sciences (NCATS), 2010):
Some of the results follow. Further columns of the screen follow, without active or inactive calls. The list favours compounds with an active or inconclusive main result. Words in brackets tell the shape of the fitted curve; partial curves, single points and poor fits give uncertain potencies.

Assay: qHTS Assay for Lipid Storage Modulators in Drosophila S3 Cells;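 as to cell number change: cells counted by Cell Tracker Red CMTPX staining in the red channel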
Settings: BODIPY lipid droplet fluorescence, 18-24 h; for cell number change: measured here: cell count max response, cells fed with added oleic acid
Outline: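 Drosophila S3 cells loaded with oleic acid (400 uM, as added) and compounds at several concentrations; lipid droplets imaged by 488-nm laser-scanning cytometry, 500–530 nm intensity and object ratio to cell channel. Percent activity normalized to 20 uM Triacsin C.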

[1] = measured here: lipid fluorescence (Fed channel) AC50, cells fed with added oleic acid
[2] = measured here: cell number channel AC50, cells fed with added oleic acid

Structure (SMILES)	cell number change [%]	AC50 [1]	AC50 [2]
COc1cccc(N=Nc2c(=O)[nH]n3c(=O)cc(C)[nH]c23)c1	0.62	0.411 µM [falling, single point]	
CS(=O)(=O)N1N=C(c2ccc(Cl)cc2)CC1c1cccs1 (stereo unspecified)	160	2.06 µM [rising, partial curve]	20.6 µM [rising, partial curve]
COc1ccccc1-n1cnc2c(c1=O)c1nc3ccccc3nc1n2CCc1ccccc1	28.8	0.231 µM [rising, full curve, poor fit]	0.259 µM [rising, full curve, poor fit]
Cc1cc(Oc2ccccc2F)nc(NCc2ccccc2)n1	-11	6.51 µM [rising, single point]	6.51 µM [rising, single point]
O=c1c2cccnc2n(-c2ccccc2)n1Cc1ccc(Cl)cc1	96.7	0.58 µM [rising, partial curve]	1.84 µM [rising, full curve]
CC(=O)Nc1ccccc1C	1.36	0.082 µM [rising, full curve, poor fit]	0.461 µM [falling, single point]
C/C(=N\NC(=O)c1cccc(S(=O)(=O)N2CCCC2)c1)c1ccc(OCC(=O)N(C)C)cc1	40.5		8.2 µM [rising, partial curve]
O=C(O)[C@@H]1CCCN1c1ncnc2sc3c(c12)CCC3		2.91 µM [falling, single point]	
O=C(O)CC1SC(=O)N(Cc2ccccc2)C1=O (stereo unspecified)	-18.6	0.517 µM [falling, full curve]	
O=C1CC(C(=O)Nc2ccc(F)cc2)n2cnnc2N1 (stereo unspecified)	-38	0.103 µM [falling, full curve]	0.259 µM [falling, full curve, poor fit]
Cc1ccc(-c2ccc(S(=O)(=O)N3CCN(C)CC3)cc2)cc1	-29.2		0.00461 µM [falling, full curve, poor fit]
CC(C)Oc1ccc(CCc2n[nH]c(=S)n2Cc2ccccc2)cc1	-45.8		
CC(=O)c1cccc(NC(=O)CCC(=O)c2ccc(F)cc2)c1	-2.78	0.58 µM [rising, single point]	
CCCCn1c(N)c(N(CCOC)C(=O)CSc2nnc(-c3ccncc3)n2CCC)c(=O)[nH]c1=O	-20.4	29.1 µM [falling, single point]	
O=C(Cn1cnc2ccccc2c1=O)NCc1cccs1	6.92		
COc1ccc(S(=O)(=O)C(C#N)c2nc3ccccc3nc2N2CCC(C)CC2)cc1 (stereo unspecified)	17.1	0.651 µM [rising, full curve, poor fit]	
Cc1ccc(S(=O)(=O)N2CCCC(C(=O)NCCCN3CCCCC3C)C2)cc1 (stereo unspecified)	176		
CCOc1ccc(N2C(=O)/C(=C/c3ccc(C)o3)N(C)C2=S)cc1	35.8	16.4 µM [falling, partial curve, poor fit]	25.9 µM [rising, single point]
CCCCC1CCc2[nH]nc(C(=O)O)c2C1 (stereo unspecified)	-7.66	23.1 µM [rising, single point]	
CCN(CC)S(=O)(=O)c1ccc(N2CCCC2)c(NC(=O)Cc2c(F)cccc2Cl)c1	14.1		0.164 µM [rising, full curve, poor fit]
CC(C)C1=C2OC(N)=C(C#N)C(C#N)=C2C(C)CC1 (stereo unspecified)	-9.55	0.00411 µM [falling, full curve, poor fit]	

Structure (SMILES)	cell number change [%]	AC50 [1]	AC50 [2]
O=C(CN(C(=O)c1cc2c(s1)CCC2)C1CCCC1)NCc1cccs1	-16.1	0.731 µM [falling, full curve, poor fit]	
COc1ccc(NC(=O)CSc2ccc(-c3sc(C)nc3C)nn2)cc1	6.94	0.231 µM [rising, full curve]	
Cc1nc2c3c(-c4ccccc4)c(-c4ccccc4)oc3ncn2n1		4.11 µM [falling, partial curve, poor fit]	
COCCn1c(=NC(=O)CCS(=O)(=O)c2ccccc2)sc2c(OC)ccc(OC)c21	4.25		0.0058 µM [falling, full curve, poor fit]
CCOc1ccc(CNC(=O)C(=O)c2cn(CC(=O)N3CCOCC3)c3ccccc23)cc1OC	1.14	32.6 µM [falling, partial curve, poor fit]	
Cc1ccc(NC(=O)Cn2nc(C)c3ccccc3c2=O)cc1F	7.93	3.26 µM [rising, full curve]	
CCC(=O)Oc1c(C(=O)CC)cc2c(C)cc(=O)oc2c1C	-1.69	3.26 µM [falling, single point]	
Nc1ncnc2c1c(-c1ccc(Oc3ccccc3)cc1)cn2C1CCCC1	-26.9		
OCCN1CCOCCN(CCO)CCOCC1	-5.01	16.4 µM [falling, partial curve]	
CN(C)CCOC(=O)c1ccc(COc2ccccc2Br)o1	24.3	32.6 µM [rising, partial curve]	
O=C(O)c1ccccc1/C=N/NC(=O)C1CCCC1	28.7	29.1 µM [rising, single point]	
COc1ccc(NC(=O)CCN2CCN(S(=O)(=O)c3ccc(C(C)C)cc3)CC2)cc1	82.7		23.1 µM [rising, single point]
O=S(=O)(c1ccc(S(=O)(=O)N(Cc2ccc(F)cc2)C2CCCC2)cc1)N1CCCC1	-1.94		
O=C(COC(=O)c1ccccn1)Nc1nccs1	-15		0.116 µM [falling, full curve]
CC(C)c1ccc(OCC(=O)NC2CC(C)(C)NC(C)(C)C2)c(Br)c1	21.1		
COc1ccc(C2CC(c3ccc4ccccc4c3OC(C)=O)=NN2C(C)=O)cc1 (stereo unspecified)	-2.21	6.51 µM [rising, single point]	
COc1cc(C(=O)NCCOc2cc(C)ccc2C(C)C)cc(OC)c1OC	-44.7	6.51 µM [falling, partial curve, poor fit]	18.4 µM [falling, partial curve]
O=C(CSc1nnc2ccccn12)NNC(=O)c1ccc(Br)cc1		0.517 µM [rising, partial curve]	
COc1ccc(C(C)=O)cc1COC(=O)C(CO)NS(=O)(=O)c1ccc(Br)cc1 (stereo unspecified)			0.82 µM [rising, single point]
CCc1cc(C(=O)N2CCCC(CO)(Cc3ccc(F)cc3)C2)n(C)n1 (stereo unspecified)	-36.1		29.1 µM [falling, partial curve, poor fit]
Cc1ccccc1-n1nc(C)c2cc(C(=O)NCc3cccnc3)sc21			1.3 µM [rising, full curve]

Structure (SMILES)	cell number change [%]	AC50 [1]	AC50 [2]
NC1=NC(=O)/C(=C/c2ccc(-c3ccc(S(N)(=O)=O)cc3)o2)S1	75.7		18.4 µM [rising, single point]
CC(C)(C)NC(=O)Cn1nnnc1-c1nonc1N	4.06		
O=C(CSc1nnc(CNc2ccccc2)o1)N1CCc2ccccc21	3.52	13 µM [rising, single point]	
O=C(N/N=C/c1cc(Br)c(O)c(Br)c1)c1cc2c(ccc3ccccc32)o1	-46.7		20.6 µM [falling, partial curve, poor fit]
CCc1ccnc(NS(=O)(=O)c2ccc3c(c2)CCO3)c1	-2.25	32.6 µM [falling, single point]	
Cc1ccc(C)c(NC(=S)NC(C)C(c2ccccc2)N2CCN(C)CC2)c1 (stereo unspecified)	12.3		
CCOc1ccc2nc(C(=O)N3CCCC(C)C3)sc2c1 (stereo unspecified)	-48.2		16.4 µM [falling, single point]
O=C(O)C1(c2ccccc2)CCN(S(=O)(=O)c2cccc(Cl)c2)CC1	4.76		
Cc1cc(NC(=O)NC2CC(=O)N(c3ccc4c(c3)OCCO4)C2)no1 (stereo unspecified)		0.411 µM [falling, full curve, poor fit]	
N=c1c(C(=O)NCC2CCCO2)cc2c(=O)n3ccccc3nc2n1Cc1cccnc1 (stereo unspecified)	23.7	4.61 µM [rising, full curve]	
CCN(CC)CCCNC(=O)c1nn(-c2cccc(OC)c2)c(=O)c2ccccc12	5.75	13 µM [rising, single point]	
Cc1cc(F)ccc1N1CCC(N2CCN(C)C(CCO)C2)CC1 (stereo unspecified)	-10.2		
COc1ccc(Cl)cc1NC(=O)C/C(C)=N/NC(=O)c1ccc(O)cc1	-16.7	0.517 µM [falling, single point]	
Cc1nn(C)cc1CN(C)C(=O)c1nn2c(c1Cl)NC(c1cccs1)CC2C(F)(F)F (stereo unspecified)	23.5	29.1 µM [rising, single point]	
c1csc(-c2nc3c4ccccc4c4ccccc4c3[nH]2)c1	-26	16.4 µM [falling, partial curve]	
CC(=O)N1CCN(C(=O)c2oc3ccccc3c2C)CC1	-9.09	29.1 µM [rising, single point]	
CN(Cc1ccccc1)C(=O)COC(=O)c1ccc2c(c1)OCO2	-40.6	29.1 µM [falling, single point]	
O=C(Cc1c(F)cccc1Cl)NC1=NCCS1	-8.94		
CC(OC(=O)CC1CC2CCC1C2)C(=O)Nc1ccc(C(N)=O)cc1 (stereo unspecified)		4.11 µM [rising, single point]	
Cc1nn(C)cc1S(=O)(=O)N1CCN(Cc2cccc(Cl)c2)CC1	-1.08		
COc1ccc(CC(=O)OCCc2cc3cc(OC)c(OC)cc3c(=O)o2)cc1	-5.56	0.00461 µM [falling, full curve, poor fit]	0.0058 µM [falling, full curve, poor fit]

Some of the entries above, reformatted:
Structure (SMILES) | cell number change [%] | AC50 [1] | AC50 [2]
O=C(CSc1nnc(CNc2ccccc2)o1)N1CCc2ccccc21 | 3.52 | 13 µM [rising, single point] | 
O=C(N/N=C/c1cc(Br)c(O)c(Br)c1)c1cc2c(ccc3ccccc32)o1 | -46.7 |  | 20.6 µM [falling, partial curve, poor fit]
CCc1ccnc(NS(=O)(=O)c2ccc3c(c2)CCO3)c1 | -2.25 | 32.6 µM [falling, single point] | 
Cc1ccc(C)c(NC(=S)NC(C)C(c2ccccc2)N2CCN(C)CC2)c1 (stereo unspecified) | 12.3 |  | 
CCOc1ccc2nc(C(=O)N3CCCC(C)C3)sc2c1 (stereo unspecified) | -48.2 |  | 16.4 µM [falling, single point]
O=C(O)C1(c2ccccc2)CCN(S(=O)(=O)c2cccc(Cl)c2)CC1 | 4.76 |  | 
Cc1cc(NC(=O)NC2CC(=O)N(c3ccc4c(c3)OCCO4)C2)no1 (stereo unspecified) |  | 0.411 µM [falling, full curve, poor fit] | 
N=c1c(C(=O)NCC2CCCO2)cc2c(=O)n3ccccc3nc2n1Cc1cccnc1 (stereo unspecified) | 23.7 | 4.61 µM [rising, full curve] | 
CCN(CC)CCCNC(=O)c1nn(-c2cccc(OC)c2)c(=O)c2ccccc12 | 5.75 | 13 µM [rising, single point] | 
Cc1cc(F)ccc1N1CCC(N2CCN(C)C(CCO)C2)CC1 (stereo unspecified) | -10.2 |  | 
COc1ccc(Cl)cc1NC(=O)C/C(C)=N/NC(=O)c1ccc(O)cc1 | -16.7 | 0.517 µM [falling, single point] | 
Cc1nn(C)cc1CN(C)C(=O)c1nn2c(c1Cl)NC(c1cccs1)CC2C(F)(F)F (stereo unspecified) | 23.5 | 29.1 µM [rising, single point] | 
c1csc(-c2nc3c4ccccc4c4ccccc4c3[nH]2)c1 | -26 | 16.4 µM [falling, partial curve] | 
